Test results published in paper PMC5996148.
Several values for one entry are separate records, joined by “and”; a condition that tells them apart may be missing. Equal entries are not always repeated. The list shows a part of the results. For some of these results: The exact form of the protein is not confirmed.

Chains of the proteins cited; added tags and fusions are not shown. Lines headed by an entry give the natural chain unless they say otherwise; changes in a name come on top.
UniProt Q8IXJ9: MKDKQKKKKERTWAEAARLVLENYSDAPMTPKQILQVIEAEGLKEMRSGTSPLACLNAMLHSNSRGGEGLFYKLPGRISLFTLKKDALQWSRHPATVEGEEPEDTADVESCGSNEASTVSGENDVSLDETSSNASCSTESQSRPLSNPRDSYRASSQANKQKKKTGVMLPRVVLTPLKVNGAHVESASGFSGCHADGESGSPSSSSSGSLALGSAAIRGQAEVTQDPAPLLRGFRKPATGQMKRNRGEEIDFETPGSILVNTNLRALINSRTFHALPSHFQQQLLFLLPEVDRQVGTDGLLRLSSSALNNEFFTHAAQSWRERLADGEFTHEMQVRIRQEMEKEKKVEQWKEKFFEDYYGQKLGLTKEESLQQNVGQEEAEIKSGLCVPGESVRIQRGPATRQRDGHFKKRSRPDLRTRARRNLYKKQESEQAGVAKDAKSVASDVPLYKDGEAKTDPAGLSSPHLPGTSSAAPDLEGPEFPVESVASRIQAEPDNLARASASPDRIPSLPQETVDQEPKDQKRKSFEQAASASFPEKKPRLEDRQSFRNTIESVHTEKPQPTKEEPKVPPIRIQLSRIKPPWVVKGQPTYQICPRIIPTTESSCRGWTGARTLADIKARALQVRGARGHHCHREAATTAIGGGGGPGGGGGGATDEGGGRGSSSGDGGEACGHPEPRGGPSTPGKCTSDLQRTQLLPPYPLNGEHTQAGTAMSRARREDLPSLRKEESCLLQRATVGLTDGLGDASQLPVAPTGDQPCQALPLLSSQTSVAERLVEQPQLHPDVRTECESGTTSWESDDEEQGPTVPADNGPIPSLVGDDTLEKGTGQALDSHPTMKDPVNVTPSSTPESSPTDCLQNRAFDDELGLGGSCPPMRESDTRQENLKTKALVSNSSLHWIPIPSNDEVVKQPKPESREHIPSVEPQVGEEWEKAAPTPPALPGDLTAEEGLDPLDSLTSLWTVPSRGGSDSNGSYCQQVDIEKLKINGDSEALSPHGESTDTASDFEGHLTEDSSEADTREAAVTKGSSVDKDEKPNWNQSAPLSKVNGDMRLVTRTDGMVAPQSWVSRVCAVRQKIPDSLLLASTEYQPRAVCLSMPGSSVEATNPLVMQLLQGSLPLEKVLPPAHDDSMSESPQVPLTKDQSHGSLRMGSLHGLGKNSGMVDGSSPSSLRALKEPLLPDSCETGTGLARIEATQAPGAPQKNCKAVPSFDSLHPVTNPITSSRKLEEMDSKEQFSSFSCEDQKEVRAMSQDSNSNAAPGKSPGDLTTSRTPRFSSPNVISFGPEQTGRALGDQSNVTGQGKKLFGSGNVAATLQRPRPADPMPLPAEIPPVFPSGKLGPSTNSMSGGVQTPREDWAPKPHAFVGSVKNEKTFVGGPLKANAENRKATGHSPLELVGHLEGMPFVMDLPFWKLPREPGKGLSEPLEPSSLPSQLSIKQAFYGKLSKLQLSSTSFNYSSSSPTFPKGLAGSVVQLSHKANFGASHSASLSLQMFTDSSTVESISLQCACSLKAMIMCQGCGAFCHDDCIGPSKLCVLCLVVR

How the values were obtained:
Assay in all cases: protein microarray (ProtoArray v5.0), streptavidin-Alexa Fluor 647
Settings in all cases: 3'-biotin; 20 mM Tris (pH 7.5), 5 mM MgCl2, 100 mM KCl, 0.1% Tween-20, A/T-rich and random oligonucleotide blockers; temperature not stated; high values mean tight binding
ASAHL (human) = test system: ASAHL (human)
ASB11 (human) = test system: ASB11 (human)
ASB13 (human) = test system: ASB13 (human)
ASB6 (human) = test system: ASB6 (human)
ASB7 (human) = test system: ASB7 (human)
ASF1A (human) = test system: ASF1A (human)
ASMTL (human) = test system: ASMTL (human)
ASNS = biological target: T1, ASNS (UniProt P08243)
T1 sequence: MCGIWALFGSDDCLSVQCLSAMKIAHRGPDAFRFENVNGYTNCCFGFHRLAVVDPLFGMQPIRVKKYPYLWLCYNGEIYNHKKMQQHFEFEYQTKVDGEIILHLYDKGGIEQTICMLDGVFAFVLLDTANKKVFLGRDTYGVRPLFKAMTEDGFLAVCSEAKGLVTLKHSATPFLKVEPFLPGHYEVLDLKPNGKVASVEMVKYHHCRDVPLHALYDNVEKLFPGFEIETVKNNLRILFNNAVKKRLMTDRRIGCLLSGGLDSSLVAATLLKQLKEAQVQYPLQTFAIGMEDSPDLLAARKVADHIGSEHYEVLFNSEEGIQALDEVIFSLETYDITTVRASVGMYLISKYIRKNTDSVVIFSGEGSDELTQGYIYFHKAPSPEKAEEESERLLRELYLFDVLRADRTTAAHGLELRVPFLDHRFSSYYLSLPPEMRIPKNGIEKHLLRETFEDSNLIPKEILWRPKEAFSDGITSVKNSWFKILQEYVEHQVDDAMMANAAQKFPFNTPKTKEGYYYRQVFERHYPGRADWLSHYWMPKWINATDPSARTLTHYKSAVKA

ASPH (human) = test system: ASPH (human)
ASXL1 = ASXL1 (UniProt Q8IXJ9)

In the case of “GGGAGGCTGAGGCAGG [G4-1 biotinylated (PQS2)]”, the binding signal (ASAHL (human)) is reported as -0.256 z-score, the binding signal (ASB11 (human)) is reported as -0.351 z-score and the binding signal (ASB13 (human)) is reported as -0.272 z-score. It also gave a binding signal (ASB6 (human)) of -0.337 z-score, a binding signal (ASB7 (human)) of -0.245 z-score and a binding signal (ASF1A (human)) of -0.303 z-score. For the same sequence, the binding signal (ASMTL (human)) was -0.356 z-score and -0.347 z-score, the binding signal (ASNS) was -0.359 z-score and the binding signal (ASPH (human)) was -0.303 z-score. The binding signal (ASXL1) was 6.13 z-score.
